Test system: iPSC-CMs, iPSC-ECs and HUVECs phenotypes
Test: ToxPi 2.0 integration of POD values and physicochemical descriptors
Set-up: species or system human
Details: for ToxPi_Score_Bioactivity: Biological Activity ToxPi, POD values of iPSC-CM, iPSC-EC and HUVEC phenotypes integrated; for ToxPi_Score_ChemBiol: Chemical-Biological Integration ToxPi, in vitro data plus physicochemical descriptors
How it was run: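 Phenotypic readouts in iPSC-cardiomyocytes, iPSC-endothelial cells and HUVECs were normalised to 0.5% DMSO vehicle and fitted to a four-parameter logistic model. POD set at one SD cutoff of vehicle means, with 100 μM assigned when no response. PODs and physicochemical descriptors combined in ToxPi 2.0 scores.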

[1] = HUVECs tube formation, 18 hr, scaled score from POD
[2] = HUVECs, 24 hr, scaled score from POD
[3] = iPSC-EC, 18 h, scaled POD score
[4] = iPSC-EC, 24 h, scaled POD score
[5] = iPSC-EC tube formation, 18 hr, scaled from POD
[6] = iPSC-EC, 24 hr, scaled from POD

Oc1cc(Cl)cc(-c2cccc(Cl)c2)c1 [5-OH-PCB 11]
ToxPi_Score_Bioactivity: 0.478
ToxPi_Score_ChemBiol: 0.4567

Clc1ccc(Cl)c(-c2c(Cl)ccc(Cl)c2Cl)c1Cl [(+)-PCB 136, 2,2′,3,3′,6,6′-hexachlorobiphenyl]
cm.amp.avg.90min ToxPi (90min): 0.64
cm.amp.cv.90min ToxPi (90min): 0.24
cm.bpm.90min ToxPi (90min): 0.80
cm.cam.90min ToxPi (90min): 0.48
cm.decay.rise.90min ToxPi (90min): 0.19
cm.mii.90min ToxPi (90min): 0.58
cm.mito.90min ToxPi (90min): 0.47
cm.spacing.cv.90min ToxPi (90min): 0.08
cm.tc.90min ToxPi (90min): 0.41
cm.amp.avg.24hrs ToxPi (24hrs): 0.56
cm.amp.cv.24hrs ToxPi (24hrs): 0.54
cm.bpm.24hrs ToxPi (24hrs): 0.72
cm.cam.24hrs ToxPi (24hrs): 0.58
cm.decay.rise.24hrs ToxPi (24hrs): 0.92
cm.mii.24hrs ToxPi (24hrs): 0.18
cm.mito.24hrs ToxPi (24hrs): 0.85
cm.spacing.cv.24hrs ToxPi (24hrs): 0.75
cm.tc.24hrs ToxPi (24hrs): 1.00
ToxPi_Score_Bioactivity: 0.6038
ToxPi_Score_ChemBiol: 0.7665
huvec.mtl.18hr ToxPi [1]: 0.45
huvec.tlps.18hr ToxPi [1]: 0.00
huvec.tta.18hr ToxPi [1]: 0.00
huvec.ttl.18hr ToxPi [1]: 0.00
huvec.cyto.24hr ToxPi [2]: 0.71
huvec.mito.24hr ToxPi [2]: 0.67
huvec.mitoint.24hr ToxPi [2]: 1.00
huvec.nma.24hr ToxPi [2]: 0.51
huvec.tc.24hrs ToxPi (HUVECs, scaled score from POD): 0.71
endo.mtl.18hr ToxPi [3]: 0.0475
endo.tlps.18hr ToxPi [3]: 0.45
endo.tta.18hr ToxPi [3]: 0.86
endo.ttl.18hr ToxPi [3]: 0.85
endo.cyto.24hr ToxPi [4]: 0.17
endo.mito.24hr ToxPi [4]: 0.17
endo.mitoint.24hr ToxPi [4]: 0.29
endo.nma.24hr ToxPi [4]: 0.00
endo.tc.24hrs ToxPi [4]: 0.17

Clc1ccc(Cl)c(-c2c(Cl)ccc(Cl)c2Cl)c1Cl [(-)-PCB 136, 2,2′,3,3′,6,6′-hexachlorobiphenyl]
cm.amp.avg.90min ToxPi (90min): 0.76
cm.amp.cv.90min ToxPi (90min): 0.23
cm.bpm.90min ToxPi (90min): 0.26
cm.cam.90min ToxPi (90min): 0.91
cm.decay.rise.90min ToxPi (90min): 0.56
cm.mii.90min ToxPi (90min): 0.31
cm.mito.90min ToxPi (90min): 0.91
cm.spacing.cv.90min ToxPi (90min): 0.08
cm.tc.90min ToxPi (90min): 0.92
cm.amp.avg.24hrs ToxPi (24hrs): 0.72
cm.amp.cv.24hrs ToxPi (24hrs): 1.00
cm.bpm.24hrs ToxPi (24hrs): 0.38
cm.cam.24hrs ToxPi (24hrs): 0.28
cm.decay.rise.24hrs ToxPi (24hrs): 0.90
cm.mii.24hrs ToxPi (24hrs): 0.34
cm.mito.24hrs ToxPi (24hrs): 0.45
cm.spacing.cv.24hrs ToxPi (24hrs): 0.20
cm.tc.24hrs ToxPi (24hrs): 0.47
ToxPi_Score_Bioactivity: 0.5804
ToxPi_Score_ChemBiol: 0.7521
huvec.mtl.18hr ToxPi [1]: 0.34
huvec.tlps.18hr ToxPi [1]: 0.30
huvec.tta.18hr ToxPi [1]: 0.0137
huvec.ttl.18hr ToxPi [1]: 0.00
huvec.cyto.24hr ToxPi [2]: 0.61
huvec.mito.24hr ToxPi [2]: 0.55
huvec.mitoint.24hr ToxPi [2]: 0.95
huvec.nma.24hr ToxPi [2]: 0.50
huvec.tc.24hrs ToxPi (HUVECs, scaled score from POD): 0.61
endo.mtl.18hr ToxPi [3]: 0.07
endo.tlps.18hr ToxPi [3]: 0.09
endo.tta.18hr ToxPi [3]: 0.61
endo.ttl.18hr ToxPi [3]: 0.63
endo.cyto.24hr ToxPi [4]: 0.37
endo.mito.24hr ToxPi [4]: 0.37
endo.mitoint.24hr ToxPi [4]: 0.47
endo.nma.24hr ToxPi [4]: 0.00
endo.tc.24hrs ToxPi [4]: 0.38

Clc1ccc(-c2ccccc2)cc1 [PCB3]
huvec.mtl.18hr ToxPi (HUVECs, 18 hr, scaled from POD): 0.31
huvec.tlps.18hr ToxPi (HUVECs, 18 hr, scaled from POD): 0.00
huvec.tta.18hr ToxPi (HUVECs, 18 hr, scaled from POD): 0.99
huvec.ttl.18hr ToxPi (HUVECs, 18 hr, scaled from POD): 0.75
huvec.cyto.24hr ToxPi (HUVECs, 24 hr, scaled from POD): 0.00
huvec.mito.24hr ToxPi (HUVECs, 24 hr, scaled from POD): 0.00
huvec.mitoint.24hr ToxPi (HUVECs, 24 hr, scaled from POD): 0.00
huvec.nma.24hr ToxPi (HUVECs, 24 hr, scaled from POD): 0.00
huvec.tc.24hrs ToxPi (HUVECs, scaled from POD): 0.00
cm.amp.avg.24hrs ToxPi (iPSC-CM): 0.05
cm.amp.avg.90min ToxPi (iPSC-CM): 0.31
cm.amp.cv.24hrs ToxPi (iPSC-CM): 0.21
cm.amp.cv.90min ToxPi (iPSC-CM): 0.68
cm.bpm.24hrs ToxPi (iPSC-CM): 0.19
cm.bpm.90min ToxPi (iPSC-CM): 0.38
cm.cam.24hrs ToxPi (iPSC-CM): 0.35
cm.cam.90min ToxPi (iPSC-CM): 0.57
cm.decay.rise.24hrs ToxPi (iPSC-CM): 0.32
cm.decay.rise.90min ToxPi (iPSC-CM): 0.00
cm.mii.24hrs ToxPi (iPSC-CM): 0.59
cm.mii.90min ToxPi (iPSC-CM): 1.00
cm.mito.24hrs ToxPi (iPSC-CM): 0.58
cm.mito.90min ToxPi (iPSC-CM): 0.63
cm.spacing.cv.24hrs ToxPi (iPSC-CM): 0.17
cm.spacing.cv.90min ToxPi (iPSC-CM): 1.00
cm.tc.24hrs ToxPi (iPSC-CM): 0.61
cm.tc.90min ToxPi (iPSC-CM): 0.66
endo.mtl.18hr ToxPi [5]: 0.00
endo.tlps.18hr ToxPi [5]: 0.00
endo.tta.18hr ToxPi [5]: 0.00
endo.ttl.18hr ToxPi [5]: 0.00
endo.cyto.24hr ToxPi [6]: 0.00
endo.mito.24hr ToxPi [6]: 0.00
endo.mitoint.24hr ToxPi [6]: 0.00
endo.nma.24hr ToxPi [6]: 0.00
endo.tc.24hrs ToxPi [6]: 0.00
